Experimental data taken from ChEMBL document CHEMBL5308504, “Tm Shift (DSF) assay results for EUbOPEN Chemogenomics Library” (2023).
For some assays here: This list holds what a sample rich in highest values left over. For some assays here: What follows is the remainder of the data, with few or none of the lowest values.

How the values were obtained:
[1] = target: Bromodomain-containing protein 4 (Homo sapiens) (UniProt O60885); settings: Compound concentration 20.0 uM, Protein concentration 2.0 uM, Result type QC Liability
[2] = target: T1, Transcription intermediary factor 1-alpha (Homo sapiens) (UniProt O15164); settings: Compound concentration 20.0 uM, Protein concentration 2.0 uM, Result type QC Liability
T1 sequence (whole entry): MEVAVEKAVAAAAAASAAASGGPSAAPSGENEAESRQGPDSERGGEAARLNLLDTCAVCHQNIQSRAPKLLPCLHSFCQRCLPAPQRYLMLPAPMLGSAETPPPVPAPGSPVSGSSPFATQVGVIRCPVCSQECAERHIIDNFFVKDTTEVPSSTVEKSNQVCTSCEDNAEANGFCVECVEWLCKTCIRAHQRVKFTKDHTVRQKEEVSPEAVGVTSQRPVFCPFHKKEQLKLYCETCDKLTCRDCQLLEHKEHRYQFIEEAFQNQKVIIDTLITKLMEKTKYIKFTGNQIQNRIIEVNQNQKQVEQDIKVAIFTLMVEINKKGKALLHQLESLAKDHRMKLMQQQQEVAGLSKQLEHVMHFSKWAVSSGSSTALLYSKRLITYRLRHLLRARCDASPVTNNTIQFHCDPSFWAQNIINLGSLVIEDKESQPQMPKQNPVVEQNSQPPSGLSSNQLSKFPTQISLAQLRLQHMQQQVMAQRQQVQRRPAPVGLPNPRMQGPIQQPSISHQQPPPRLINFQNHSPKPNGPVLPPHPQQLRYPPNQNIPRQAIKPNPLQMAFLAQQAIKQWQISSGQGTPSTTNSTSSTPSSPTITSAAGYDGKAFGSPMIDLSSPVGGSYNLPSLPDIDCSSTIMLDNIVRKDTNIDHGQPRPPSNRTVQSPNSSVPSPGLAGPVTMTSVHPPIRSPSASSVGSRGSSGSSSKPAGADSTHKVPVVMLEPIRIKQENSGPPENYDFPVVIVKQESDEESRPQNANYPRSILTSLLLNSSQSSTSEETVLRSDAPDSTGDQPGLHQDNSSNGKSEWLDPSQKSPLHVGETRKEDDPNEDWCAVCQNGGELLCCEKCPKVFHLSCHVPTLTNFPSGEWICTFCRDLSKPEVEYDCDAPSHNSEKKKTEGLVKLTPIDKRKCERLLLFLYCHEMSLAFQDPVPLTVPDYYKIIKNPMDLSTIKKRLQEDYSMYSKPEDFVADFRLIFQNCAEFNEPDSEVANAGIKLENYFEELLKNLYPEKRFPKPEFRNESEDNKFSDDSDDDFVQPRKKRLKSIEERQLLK

With `C[C@@H]1C[C@H](N)C[C@H](c2ccncc2NC(=O)c2ccc(F)c(-c3c(F)cccc3F)n2)C1` the ΔTm [1] was -0.58 °C and the ΔTm [2] was -0.71 °C.
